Experimental data: PubChem BioAssay AID485314 (National Center for Advancing Translational Sciences (NCATS), 2010)
In all, about 340,000 compounds went through this assay and about 4,500 (1.3%) were called active. The shares of active, inactive and inconclusive entries below differ from those in the screen. Calls follow the shape of the dose curve; as a rule, active = well fitted inhibition curve with a large enough effect; inconclusive = small, poorly fitted or top-dose-only effect, or another doubt; inactive = no such curve, though single readings can be large or run the other way. Potencies beside an inconclusive call are fits to weak or partial responses and may not hold up.

The compounds below were run against DNA polymerase beta (Homo sapiens) (UniProt P06746) (assay: qHTS Assay for Inhibitors of DNA Polymerase Beta). Settings: Pol beta primer extension/strand displacement, fluorescence kinetic; activity change, negative = inhibition: at 114 µM (top of the series).
Method in brief: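 Pol beta (10 nM) was preincubated with compound for 15 min at room temperature. The reaction was then started with 50 nM substrate and read immediately and after a further 10 min at room temperature.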
% is scaled to controls: 0 for no effect and ±100 for the full control effect; potency is read from the fitted curve at half-maximal effect.

Potency, inconclusive:
Cc1cnc(C(=O)OCc2ccc(COC(=O)c3cnc(C)cn3)cc2)cn1 1.58 µM [inhibitor, full curve, poor fit], O=C(Nc1cccnc1)c1cc2cc(Br)ccc2oc1=O 89.1 µM [inhibitor, single point], NS(=O)(=O)c1cccc(NC(=O)COC(=O)/C=C/c2ccco2)c1 39.8 µM [inhibitor, partial curve, poor fit], COc1ccc(C(=O)Nn2cc3c(c2-c2ccccc2)c(=O)n(C)c(=O)n3C)cc1 89.1 µM [inhibitor, single point], CC(=O)O[C@H]1CC[C@]2(C)[C@H]3CC=C4[C@@H]5[C@@H](C)[C@H](C)CC[C@]5(C(=O)O)CC[C@@]4(C)[C@]3(C)CC[C@H]2C1(C)C 39.8 µM [inhibitor, partial curve, poor fit], Cc1cc(=O)oc2cc(NC(=O)c3ccc(OC(F)F)cc3)ccc12 25.1 µM [inhibitor, single point], COC(=O)c1scc2c(Oc3ccccc3)cc(C(F)(F)F)nc12 89.1 µM [inhibitor, single point], O=C(Nc1ccc(Cl)cc1Cl)c1ccc2ncsc2c1 35.5 µM [inhibitor, full curve], COc1cc(NC(=O)CCS(=O)(=O)c2ccc(Br)cc2)cc(OC)c1 89.1 µM [inhibitor, single point], CCCCNC(=O)c1onc(CSc2cc(C)ccc2C)c1C(=O)O 12.6 µM [inhibitor, partial curve], CCn1c2ccccc2c2cc(NC(=O)COC(=O)c3cc(S(N)(=O)=O)c(Cl)cc3Cl)ccc21 50.1 µM [inhibitor, partial curve], CC(C)c1ccc(-c2noc(SCC(=O)N3CCN(c4ccccc4F)CC3)n2)cc1 70.8 µM [inhibitor, single point], Cc1cc(C)cc(C(=O)NC2C(=O)N3C(C(=O)O)=C(CSc4nnc(C)s4)CSC23)c1 (stereo not given) 3.55 µM [inhibitor, partial curve, poor fit], C=CCN1C(=O)/C(=C2/Sc3ccccc3N2C)SC1=Nc1c(C)n[nH]c1C 12.6 µM [inhibitor, partial curve], CCCC(C)C(=O)Nc1nnc(C)s1 (stereo not given) 5.62 µM [inhibitor, full curve], Cc1ccnc(OC(C(=O)O)C(OCCc2ccccc2)(c2ccccc2)c2ccccc2)n1 (stereo not given) 100 µM [inhibitor, single point], O=[N+]([O-])c1cccc(-c2nc(NCc3ccccc3)c3ccccc3n2)c1 56.2 µM [inhibitor, single point], Cc1ccccc1-n1c(-c2ccc(=O)[nH]n2)n[nH]c1=S 0.794 µM [inhibitor, partial curve, poor fit], COc1ccc(CNc2ncnc3ccccc23)cc1 89.1 µM [inhibitor, single point], COc1ccc(CCNc2ncnc3c2cnn3-c2ccc(F)cc2)cc1 89.1 µM [inhibitor, single point], CCN(CCCNC(=O)C1CCN(S(=O)(=O)c2c(C)[nH]c(=O)[nH]c2=O)CC1)c1cccc(C)c1 5.62 µM [inhibitor, full curve, poor fit], CC(C)C[C@H](NC(=O)c1nc[nH]c1C(=O)NCc1ccccc1)C(=O)OC(C)(C)C 79.4 µM [inhibitor, single point], Cc1ccc(N2CCN(/N=C/c3cccs3)CC2)cc1 39.8 µM [inhibitor, single point], Cc1c(NS(=O)(=O)c2cccs2)cccc1-c1nc2cccnc2s1 70.8 µM [inhibitor, single point], CN1CCN(C(=O)c2ccc(COc3cc(Cl)ccc3Cl)o2)CC1 100 µM [inhibitor, single point], CC(C)N1C(=S)SC(C)(C)C1NO (stereo not given) 0.158 µM [inhibitor, full curve], COc1ccc(S(=O)(=O)N(C)CC(=O)NCc2ccco2)cc1 25.1 µM [inhibitor, full curve], O=C(N/N=C/c1ccc(Sc2nc3ccccc3[nH]2)o1)c1ccncc1 89.1 µM [inhibitor, single point], CC1CCCC(NCC(=O)Nc2ccc(C(N)=O)cc2)C1C (stereo not given) 63.1 µM [inhibitor, partial curve, poor fit], O=C(Cn1nnc(-c2ccccc2Cl)n1)NCc1ccc2c(c1)OCO2 100 µM [inhibitor, single point], O=c1cc(O)nc(SC23CC4CC(CC(C4)C2)C3)[nH]1 12.6 µM [inhibitor, partial curve], O=C(NCC1CCCO1)C1c2ccccc2C(=O)N1Cc1ccc2c(c1)OCO2 (stereo not given) 39.8 µM [inhibitor, single point], CCn1ccnc1CN1CCc2c([nH]c3ccccc23)C1C1CCCCC1 (stereo not given) 28.2 µM [inhibitor, single point], Cc1oc(-c2cccc(Br)c2)nc1CN1CCC(C(=O)NCc2ccccc2)CC1 0.126 µM [inhibitor, full curve, poor fit], COc1cc2c(cc1OC)-c1cc(N3CCc4ccccc43)nc(=O)n1CC2 20 µM [inhibitor, full curve], Cc1onc(-c2ccccc2)c1C(=O)N1CCN(c2ncccc2C(F)(F)F)CC1 3.16 µM [inhibitor, single point], COc1cc(NS(=O)(=O)c2ccc(NC(=O)COc3ccc(Cl)cc3Cl)cc2)nc(OC)n1 0.1 µM [inhibitor, full curve, poor fit], COc1ccc(C2C(C(=O)Nc3cccnc3)=C(C)Nc3nc(-c4ccc(OC)c(OC)c4)nn32)cc1 (stereo not given) 0.1 µM [inhibitor, full curve, poor fit], COC(=O)c1sccc1NC(=O)c1ccc(OC)c(OC)c1 89.1 µM [inhibitor, single point], Oc1ccccc1-c1nc2c3ccccc3c3ccccc3c2[nH]1 11.2 µM [inhibitor, partial curve], CC(=O)c1cccc(NC(=O)N2CCCC2C(=O)Nc2ccc3c(c2)OCO3)c1 (stereo not given) 89.1 µM [inhibitor, single point], Cc1onc(-c2c(Cl)cccc2Cl)c1C(=O)N1CCN(c2ncccn2)CC1 0.355 µM [inhibitor, partial curve, poor fit], O=C(COc1ccc2ccc(=O)oc2c1)OCc1ccccc1 89.1 µM [inhibitor, single point], CCOC(=O)c1nnsc1NC(=O)Nc1ccc(OC)cc1 44.7 µM [inhibitor, partial curve], O=C(NCC1CCCO1)C(c1cccs1)N(C(=O)c1ccc(CN2CCOCC2)o1)c1ccc(Cl)cc1 (stereo not given) 39.8 µM [inhibitor, single point]

Potency, active:
CCN1CCCC1CNC(=O)c1cc2c(-c3ccc(Cl)cc3)nn(C)c2s1 (stereo not given) 35.5 µM, COc1ccc(C(C)NC(=O)CN(c2cc(OC)ccc2OC)S(=O)(=O)c2ccccc2)cc1 (stereo not given) 20 µM, COc1ccccc1CNC(=O)COC(=O)c1cc(-c2ccco2)nc2ccccc12 5.01 µM, Cc1nnc2ccc(-c3ccc(NC(=O)c4ccco4)cc3)nn12 17.8 µM, O=C(CSc1nnnn1-c1ccc(F)cc1)c1ccc(O)c(O)c1 12.6 µM, CO/N=C(\C(=O)N[C@@H]1C(=O)N2C(C(=O)O)=C(CSc3nc(=O)c(O)nn3C)CSC12)c1csc(N)n1 (stereo not given in full) 14.1 µM, CCS(=O)(=O)N1Cc2ccccc2CC1C(=O)N1CCN(c2ccccc2)CC1 (stereo not given) 35.5 µM, COc1ccc(N2Cc3cccc(C(=O)N4CCN(C(=O)c5ccco5)CC4)c3C2=O)cc1 10 µM

Activity change, negative = inhibition, inactive:
CCc1cccc(NC(=O)Cn2c(=O)n(CC3CCC(C(=O)NC)CC3)c(=O)c3sccc32)c1 (stereo not given) -1.16%, COc1cccc(CNC(=O)Cn2c(=O)cc(C)c3c(C)nn(C)c32)c1OC -15.1%, N#CC1=C(N)N(c2ccc(Cl)cc2)C2=C(C(=O)CCC2)C1c1cc(CN2CCOCC2)cs1 (stereo not given) 37.4%, Cc1nc(N2CCCC2)ncc1C(=O)Nc1ccc(OC(F)(F)F)cc1 -21%, COc1cccc(NC(=O)c2csc3c2CCCCC3)c1 17.8%, O=C(CS(=O)(=O)c1nc(-c2ccc(Cl)cc2)cn1-c1ccccc1)Nc1cccc(Cl)c1 3.59%, C=CCn1c(=O)[nH]c2cc(C(=O)N3CCN(c4cc(C)ccc4C)CC3)ccc2c1=O 7.31%, O=C(CCNS(=O)(=O)c1ccc(Br)s1)Nc1ccc(Br)cc1 -2.5%, Cc1cc(Cl)ccc1NC(=O)CCS(=O)(=O)c1ccc2c(c1)CC(C)N2C(=O)C1CC1 (stereo not given) 8.63%, Cc1ccccc1-n1c(=O)c2ccccc2n2cnnc12 -0.641%, CC(=O)c1cccc(N(CC(=O)N2CCCC2)S(C)(=O)=O)c1 1.49%

Activity change, negative = inhibition, inconclusive:
O=C(Cn1ncc(Cl)c(Cl)c1=O)NC1CCS(=O)(=O)C1 (stereo not given) -73.5% [inhibitor]
